Measured values taken from article doi:10.1101/2023.09.13.555514.
Results are given in words; binding and its absence hold for the method and conditions named. In cells and extracts the contact can be indirect. For some of these results: Binding calls can cover weak binding; strength is not graded here. For some of these results: Sequences can lack the tags named with a protein. Values belong to the molecule of their own block, whether it stands above or below them.

Amino acid sequences for entries named in this document (tags omitted).
UniProt Q9Y4B6: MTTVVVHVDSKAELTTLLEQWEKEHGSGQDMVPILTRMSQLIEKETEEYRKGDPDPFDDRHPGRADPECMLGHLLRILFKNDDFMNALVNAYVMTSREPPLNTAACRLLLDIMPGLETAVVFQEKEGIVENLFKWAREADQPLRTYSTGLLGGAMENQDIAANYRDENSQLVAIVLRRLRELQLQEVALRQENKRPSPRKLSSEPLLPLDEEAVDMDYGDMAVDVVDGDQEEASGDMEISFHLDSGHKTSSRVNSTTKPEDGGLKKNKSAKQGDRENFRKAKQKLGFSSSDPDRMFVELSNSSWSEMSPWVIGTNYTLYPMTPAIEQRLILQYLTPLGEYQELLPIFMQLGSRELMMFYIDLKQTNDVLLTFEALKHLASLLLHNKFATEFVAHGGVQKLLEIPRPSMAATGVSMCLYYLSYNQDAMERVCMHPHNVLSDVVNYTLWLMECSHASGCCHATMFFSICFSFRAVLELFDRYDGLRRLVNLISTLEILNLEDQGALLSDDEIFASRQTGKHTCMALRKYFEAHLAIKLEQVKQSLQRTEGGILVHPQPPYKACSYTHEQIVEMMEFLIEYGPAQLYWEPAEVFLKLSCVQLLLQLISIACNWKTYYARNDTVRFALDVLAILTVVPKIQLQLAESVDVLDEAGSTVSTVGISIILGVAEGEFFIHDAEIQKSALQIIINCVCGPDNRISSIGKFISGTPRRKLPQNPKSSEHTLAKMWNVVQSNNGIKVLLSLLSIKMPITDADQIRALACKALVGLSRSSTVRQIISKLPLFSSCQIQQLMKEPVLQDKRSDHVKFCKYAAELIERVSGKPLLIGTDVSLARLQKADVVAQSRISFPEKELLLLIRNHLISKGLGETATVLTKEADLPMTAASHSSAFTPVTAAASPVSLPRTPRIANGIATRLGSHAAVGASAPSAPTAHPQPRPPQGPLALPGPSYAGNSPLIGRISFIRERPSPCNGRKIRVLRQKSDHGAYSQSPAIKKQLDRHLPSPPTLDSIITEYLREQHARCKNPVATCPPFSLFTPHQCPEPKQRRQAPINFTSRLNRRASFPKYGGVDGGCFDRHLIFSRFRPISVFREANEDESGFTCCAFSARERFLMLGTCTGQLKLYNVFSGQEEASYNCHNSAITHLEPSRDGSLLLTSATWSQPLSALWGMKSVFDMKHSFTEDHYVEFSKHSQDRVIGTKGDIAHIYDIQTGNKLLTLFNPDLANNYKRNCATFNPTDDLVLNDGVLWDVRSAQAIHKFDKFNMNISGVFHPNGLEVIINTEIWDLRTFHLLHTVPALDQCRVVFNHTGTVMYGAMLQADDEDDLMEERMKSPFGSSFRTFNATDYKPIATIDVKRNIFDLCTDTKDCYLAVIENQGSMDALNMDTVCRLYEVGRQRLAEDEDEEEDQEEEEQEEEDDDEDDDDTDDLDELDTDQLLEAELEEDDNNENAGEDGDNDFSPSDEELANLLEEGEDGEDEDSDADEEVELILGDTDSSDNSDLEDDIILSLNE

What was measured:
Experiment in all cases: co-IP
[1] = molecular target: T1, Flag-PLK4 full length (wild type) (human) (UniProt O00444)
T1 sequence: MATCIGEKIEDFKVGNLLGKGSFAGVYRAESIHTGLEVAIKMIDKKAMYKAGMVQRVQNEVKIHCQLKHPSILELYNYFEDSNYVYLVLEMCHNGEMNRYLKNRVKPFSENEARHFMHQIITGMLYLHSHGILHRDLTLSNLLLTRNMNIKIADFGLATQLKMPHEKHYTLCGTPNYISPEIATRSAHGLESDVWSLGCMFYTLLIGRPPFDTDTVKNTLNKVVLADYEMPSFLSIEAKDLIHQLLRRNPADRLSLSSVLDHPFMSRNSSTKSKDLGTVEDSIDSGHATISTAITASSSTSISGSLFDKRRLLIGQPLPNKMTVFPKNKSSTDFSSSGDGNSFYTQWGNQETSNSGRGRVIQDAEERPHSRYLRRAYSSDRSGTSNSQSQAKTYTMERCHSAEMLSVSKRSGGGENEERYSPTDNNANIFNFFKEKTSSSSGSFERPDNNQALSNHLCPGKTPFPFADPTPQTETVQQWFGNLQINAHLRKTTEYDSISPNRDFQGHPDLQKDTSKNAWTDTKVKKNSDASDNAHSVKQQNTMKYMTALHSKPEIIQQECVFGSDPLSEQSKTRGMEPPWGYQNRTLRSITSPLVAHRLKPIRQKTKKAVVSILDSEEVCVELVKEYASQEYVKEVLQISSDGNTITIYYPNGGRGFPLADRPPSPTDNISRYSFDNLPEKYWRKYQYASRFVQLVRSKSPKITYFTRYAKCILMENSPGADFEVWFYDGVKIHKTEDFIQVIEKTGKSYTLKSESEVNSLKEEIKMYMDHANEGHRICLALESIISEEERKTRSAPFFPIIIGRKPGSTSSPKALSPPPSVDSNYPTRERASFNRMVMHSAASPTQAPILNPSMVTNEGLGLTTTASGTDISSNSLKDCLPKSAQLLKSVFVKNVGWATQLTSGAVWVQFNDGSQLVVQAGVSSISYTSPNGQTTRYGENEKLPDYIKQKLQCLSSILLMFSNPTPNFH

[2] = molecular target: T2, Flag-PLK4, immunoprecipitated and dephosphorylated with λ-phosphatase (human) (UniProt O00444)
T2 sequence (chain, dephosphorylated with λ-phosphatase): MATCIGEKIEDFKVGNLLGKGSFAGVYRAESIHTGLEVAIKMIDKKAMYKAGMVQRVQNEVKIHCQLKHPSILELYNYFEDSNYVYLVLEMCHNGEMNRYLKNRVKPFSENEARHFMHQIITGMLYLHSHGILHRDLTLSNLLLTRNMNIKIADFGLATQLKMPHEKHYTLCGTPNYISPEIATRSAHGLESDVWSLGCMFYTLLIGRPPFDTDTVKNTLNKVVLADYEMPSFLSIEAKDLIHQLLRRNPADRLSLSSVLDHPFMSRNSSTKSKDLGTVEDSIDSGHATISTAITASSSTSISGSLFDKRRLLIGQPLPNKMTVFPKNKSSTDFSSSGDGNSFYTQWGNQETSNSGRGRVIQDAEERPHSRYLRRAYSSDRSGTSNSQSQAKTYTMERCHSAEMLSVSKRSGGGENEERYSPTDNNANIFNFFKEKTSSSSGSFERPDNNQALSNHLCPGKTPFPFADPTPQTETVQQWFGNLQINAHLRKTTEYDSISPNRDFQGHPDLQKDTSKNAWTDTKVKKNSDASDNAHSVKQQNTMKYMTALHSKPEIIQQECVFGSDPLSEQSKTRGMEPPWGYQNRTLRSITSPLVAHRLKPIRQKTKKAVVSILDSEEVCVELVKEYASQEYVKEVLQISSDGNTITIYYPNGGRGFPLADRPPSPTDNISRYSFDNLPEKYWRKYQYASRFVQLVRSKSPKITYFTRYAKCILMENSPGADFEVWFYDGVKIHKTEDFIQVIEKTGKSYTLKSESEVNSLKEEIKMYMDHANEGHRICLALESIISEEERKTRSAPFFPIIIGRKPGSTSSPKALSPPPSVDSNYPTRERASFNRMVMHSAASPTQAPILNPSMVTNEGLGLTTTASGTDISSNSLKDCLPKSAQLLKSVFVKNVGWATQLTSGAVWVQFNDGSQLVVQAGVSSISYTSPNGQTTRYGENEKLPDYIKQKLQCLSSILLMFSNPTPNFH

[3] = molecular target: T3, Flag-PLK4 K41R (kinase-dead) (human) (UniProt O00444)
T3 sequence: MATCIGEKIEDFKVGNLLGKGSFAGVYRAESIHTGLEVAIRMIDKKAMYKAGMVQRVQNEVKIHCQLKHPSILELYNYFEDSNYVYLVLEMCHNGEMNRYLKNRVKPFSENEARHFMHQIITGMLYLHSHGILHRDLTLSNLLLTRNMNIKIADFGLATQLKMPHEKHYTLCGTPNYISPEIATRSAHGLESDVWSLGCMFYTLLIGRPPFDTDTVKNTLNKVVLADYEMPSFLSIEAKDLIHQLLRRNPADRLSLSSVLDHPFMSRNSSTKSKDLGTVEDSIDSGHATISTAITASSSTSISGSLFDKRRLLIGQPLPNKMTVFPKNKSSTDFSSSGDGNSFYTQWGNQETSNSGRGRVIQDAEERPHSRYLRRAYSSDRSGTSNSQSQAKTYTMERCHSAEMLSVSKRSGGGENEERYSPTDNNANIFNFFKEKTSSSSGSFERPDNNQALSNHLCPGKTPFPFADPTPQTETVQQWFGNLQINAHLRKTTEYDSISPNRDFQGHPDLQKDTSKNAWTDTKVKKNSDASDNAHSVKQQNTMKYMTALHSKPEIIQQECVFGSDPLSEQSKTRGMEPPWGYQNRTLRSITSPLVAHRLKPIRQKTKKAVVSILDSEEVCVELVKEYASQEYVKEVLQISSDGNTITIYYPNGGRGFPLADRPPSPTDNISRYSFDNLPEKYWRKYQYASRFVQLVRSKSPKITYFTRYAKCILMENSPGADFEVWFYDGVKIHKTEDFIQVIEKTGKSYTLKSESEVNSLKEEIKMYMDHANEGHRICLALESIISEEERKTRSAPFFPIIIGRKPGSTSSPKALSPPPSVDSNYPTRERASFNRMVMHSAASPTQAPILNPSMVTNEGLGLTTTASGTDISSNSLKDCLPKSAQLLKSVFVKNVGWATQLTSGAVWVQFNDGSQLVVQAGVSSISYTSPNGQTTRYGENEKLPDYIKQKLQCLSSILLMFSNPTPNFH

[4] = molecular target: T4, Flag-PLK4-AA (S285A+T289A) (human) (UniProt O00444)
T4 sequence: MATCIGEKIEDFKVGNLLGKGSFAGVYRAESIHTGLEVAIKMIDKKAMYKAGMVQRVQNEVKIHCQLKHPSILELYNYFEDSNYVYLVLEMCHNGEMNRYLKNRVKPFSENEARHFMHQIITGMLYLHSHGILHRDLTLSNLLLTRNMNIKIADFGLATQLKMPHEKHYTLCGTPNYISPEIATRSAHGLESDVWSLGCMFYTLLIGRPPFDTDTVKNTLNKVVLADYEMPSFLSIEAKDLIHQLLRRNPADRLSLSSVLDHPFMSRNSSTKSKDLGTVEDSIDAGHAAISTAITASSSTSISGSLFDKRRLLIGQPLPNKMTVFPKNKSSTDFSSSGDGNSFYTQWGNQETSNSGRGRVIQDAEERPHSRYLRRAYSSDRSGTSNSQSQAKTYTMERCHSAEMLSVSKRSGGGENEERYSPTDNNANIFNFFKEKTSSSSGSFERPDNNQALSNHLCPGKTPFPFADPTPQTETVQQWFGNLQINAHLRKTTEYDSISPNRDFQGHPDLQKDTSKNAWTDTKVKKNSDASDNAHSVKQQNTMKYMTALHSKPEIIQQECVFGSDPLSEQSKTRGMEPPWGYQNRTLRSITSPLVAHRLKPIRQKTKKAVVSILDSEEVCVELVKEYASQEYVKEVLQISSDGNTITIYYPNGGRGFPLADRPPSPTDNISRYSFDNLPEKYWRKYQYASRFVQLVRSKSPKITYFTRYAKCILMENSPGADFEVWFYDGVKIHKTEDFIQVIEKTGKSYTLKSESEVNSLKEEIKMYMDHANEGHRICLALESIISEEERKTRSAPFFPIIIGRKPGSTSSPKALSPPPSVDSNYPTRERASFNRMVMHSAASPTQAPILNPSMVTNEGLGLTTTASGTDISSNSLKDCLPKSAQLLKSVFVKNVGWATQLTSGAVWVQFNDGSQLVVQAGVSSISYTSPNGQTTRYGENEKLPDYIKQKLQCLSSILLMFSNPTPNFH

[5] = molecular target: Flag-PLK4-ΔPEST (human) (UniProt O00444)
[6] = molecular target: Flag-DCAF1 WD40 domain alone

binding [1]: binds
binding [2]: binds
binding [3]: no binding
binding [4]: no binding
Molecule: β-TrCP (endogenous) (human (endogenous in HEK293T))

binding [1]: binds
Molecule: CUL4 (human (endogenous in HEK293T))

binding [5]: binds
Molecule: DCAF1 (endogenous) (from UniProt Q9Y4B6 1-1507)

binding [6]: no binding
B1: PLK4 (endogenous) (protein, UniProt O00444 1-970)
chain: MATCIGEKIEDFKVGNLLGKGSFAGVYRAESIHTGLEVAIKMIDKKAMYKAGMVQRVQNEVKIHCQLKHPSILELYNYFEDSNYVYLVLEMCHNGEMNRYLKNRVKPFSENEARHFMHQIITGMLYLHSHGILHRDLTLSNLLLTRNMNIKIADFGLATQLKMPHEKHYTLCGTPNYISPEIATRSAHGLESDVWSLGCMFYTLLIGRPPFDTDTVKNTLNKVVLADYEMPSFLSIEAKDLIHQLLRRNPADRLSLSSVLDHPFMSRNSSTKSKDLGTVEDSIDSGHATISTAITASSSTSISGSLFDKRRLLIGQPLPNKMTVFPKNKSSTDFSSSGDGNSFYTQWGNQETSNSGRGRVIQDAEERPHSRYLRRAYSSDRSGTSNSQSQAKTYTMERCHSAEMLSVSKRSGGGENEERYSPTDNNANIFNFFKEKTSSSSGSFERPDNNQALSNHLCPGKTPFPFADPTPQTETVQQWFGNLQINAHLRKTTEYDSISPNRDFQGHPDLQKDTSKNAWTDTKVKKNSDASDNAHSVKQQNTMKYMTALHSKPEIIQQECVFGSDPLSEQSKTRGMEPPWGYQNRTLRSITSPLVAHRLKPIRQKTKKAVVSILDSEEVCVELVKEYASQEYVKEVLQISSDGNTITIYYPNGGRGFPLADRPPSPTDNISRYSFDNLPEKYWRKYQYASRFVQLVRSKSPKITYFTRYAKCILMENSPGADFEVWFYDGVKIHKTEDFIQVIEKTGKSYTLKSESEVNSLKEEIKMYMDHANEGHRICLALESIISEEERKTRSAPFFPIIIGRKPGSTSSPKALSPPPSVDSNYPTRERASFNRMVMHSAASPTQAPILNPSMVTNEGLGLTTTASGTDISSNSLKDCLPKSAQLLKSVFVKNVGWATQLTSGAVWVQFNDGSQLVVQAGVSSISYTSPNGQTTRYGENEKLPDYIKQKLQCLSSILLMFSNPTPNFH
